Out of some 300,000 compounds screened, about 5,400 (1.8%) were called active. The inconclusive results got no clear call from the source; some entries with a clear call stand among them for comparison. Calls come from the whole dose curve; tested in HEK293 cells. Potencies beside an inconclusive call are fits to weak or partial responses and may not hold up.
test: qHTS for inhibitors of binding or entry into cells for Marburg Virus; settings: Marburg virus pseudotyped entry inhibition, cell reporter; series mostly up to 37.8 µM
Potency is the fitted concentration of half-maximal effect.

SMILES | Potency
CCC(=O)N/N=C/c1ccc(OS(=O)(=O)c2ccccc2)cc1 | inconclusive: 0.251 µM [inhibitor, full curve, poor fit]
COc1ccc2cc(C(=O)NCC(=O)O)sc(=O)c2c1OC | inconclusive: 1.26 µM [activator, single point]
CC(C)(O)C#Cc1ccc(C(=O)N2CCN(c3ccccc3)CC2)cc1 | inactive
CN(CC(=O)Nc1cccc(F)c1)C(=O)CCSc1ccc(F)cc1 | inconclusive: 0.398 µM [inhibitor, partial curve, poor fit]
O=[N+]([O-])c1cnccc1Nc1cccc(F)c1 | inconclusive: 0.164 µM [inhibitor, full curve, poor fit]
Cc1ccc(-n2nc(-c3ccco3)cc2C(=O)O)c(C)c1 | inactive
Cc1ccc(-c2n[nH]c(=O)c3ccccc23)cc1S(=O)(=O)N(C)CCO | inconclusive: 18.3 µM [inhibitor, single point]
CCN(c1ccccc1)S(=O)(=O)c1ccc(OC)c(NC(=O)C2CCC2)c1 | inconclusive: 11.2 µM [inhibitor, partial curve, poor fit]
Cc1ccc2[nH]c(=O)c(CNS(=O)(=O)c3ccccc3)c(-c3ccccc3)c2c1 | inconclusive: 25.9 µM [inhibitor, single point]
c1ccc(SCc2nc(-c3ccncc3)no2)cc1 | inactive
Cc1ccc(S(=O)(=O)Nc2ccc(Cl)cc2)cc1NC(=O)c1cc2c(s1)CCCC2 | inconclusive: 22.4 µM [inhibitor, single point]
Cc1ccc(S(=O)(=O)NCCc2cc3ccc(C)cc3[nH]c2=O)cc1 | inconclusive: 10 µM [inhibitor, partial curve, poor fit]
COc1cc(/C=N/NC(=O)COc2ccc(Cl)cc2)ccc1OS(=O)(=O)c1ccc(C)cc1 | inconclusive: 23.1 µM [inhibitor, partial curve, poor fit]
O=C(O)C1CCN(S(=O)(=O)c2ccc(N3CCC(O)CC3)c([N+](=O)[O-])c2)CC1 | inactive
Cc1ccc2oc(=O)cc(CN3CCCCC3)c2c1 | inconclusive: 12.6 µM [activator, single point]
COc1ccc(C2C(C#N)=C(N)OC3=C2C(=O)CC(C)(C)C3)cc1OC (centres undefined) | inactive
Cc1cccc(-n2nnc(C(=O)NC3CCCc4ccccc43)c2N)c1 (centres undefined) | inconclusive: 32.6 µM [inhibitor, single point]
CCC(=O)NC(=S)Nc1ccc(NC(=O)COc2ccccc2)cc1 | inconclusive: 15.8 µM [activator, single point]
Cc1occc1C(=O)N/N=C/C(Br)=C\c1ccccc1 | inconclusive: 7.08 µM [inhibitor, partial curve, poor fit]
CCNC(=O)O/N=C(\C)c1sc(-c2ccc(Cl)cc2)nc1C | inconclusive: 1.78 µM [activator, partial curve]
CCc1c(C)[nH]n(-c2nc(-c3ccccc3)cs2)c1=O | inactive
Cc1ccccc1Nc1cc(C)c2c(O)cccc2n1 | inconclusive: 29.1 µM [inhibitor, single point]
COc1ccccc1C1(O)CCN(CC(=O)Nc2nc(-c3ccccc3)cs2)CC1 | inconclusive: 3.16 µM [activator, partial curve, poor fit]

SMILES | Potency
CCc1ccccc1NC(=O)Cn1c(=O)n(CCCCCC(=O)NCc2ccc(C)cc2)c(=O)c2sccc21 | inactive
CCOC(=O)C1(CCCc2ccccc2)CCN(C(=O)c2ocnc2C)CC1 | inactive
CCOc1ccccc1NC(=O)Cn1nnc(-c2ccc(OCC)c(OCC)c2)n1 | inconclusive: 29.1 µM [inhibitor, single point]
O=C(CNC(=O)c1ccc(Cl)cc1)c1ccccc1 | inconclusive: 35.5 µM [inhibitor, single point]
O=C(NCC1CCCO1)c1ccc(NC(=O)C2CC=CCC2C(=O)O)cc1 (centres undefined) | inconclusive: 0.501 µM [activator, full curve, poor fit]
O=C(NC1CCN(C(=O)Nc2cccc(F)c2)CC1)c1ccco1 | inconclusive: 1 µM [activator, partial curve, poor fit]
Cc1cccc(NC(=O)Cn2ncc3c4ccccc4n(Cc4ccccc4)c3c2=O)c1C | inactive
C/C(=N\O)c1ccc2[nH]ccc2c1 | inconclusive: 35.5 µM [activator, single point]
Cc1nn(Cc2ccccc2)c(=O)c2nn(-c3ccc(Cl)cc3)c(C)c12 | inconclusive: 35.5 µM [inhibitor, single point]
COc1cc(C(=O)Nc2ccc3c(c2)OCCO3)ccc1OC(F)F | inconclusive: 29.1 µM [inhibitor, single point]
O=C(Nc1ccc(F)cc1)NC1(C(=O)NCc2cccs2)CCCCC1 | inconclusive: 32.6 µM [inhibitor, partial curve, poor fit]
CCN(CC)S(=O)(=O)c1ccc(NC(=O)CSc2nc3nc(C)cc(C)c3c(=O)[nH]2)cc1 | inconclusive: 14.1 µM [inhibitor, partial curve, poor fit]
Cn1cccc1-c1cc(C(=O)N2CCc3c([nH]c4ccccc34)C2c2ccccn2)[nH]n1 (centres undefined) | inconclusive: 14.6 µM [inhibitor, partial curve]
Cc1ccc2nc(N3CCN(S(=O)(=O)c4ccc(C)c(Cl)c4)CC3)c(C#N)cc2c1 | active: 4.61 µM
Nn1c(SCC(=O)N2CCc3ccccc3C2)nnc1-c1cccs1 | inactive
Cc1cc(NC(=O)Nc2nnc(N(C)C3CCCCC3)s2)ccc1Br | inconclusive: 15.8 µM [inhibitor, partial curve, poor fit]
N#CCCn1cc(C(=O)Nc2ccccc2Cl)c(-c2ccc(F)cc2)n1 | inconclusive: 3.55 µM [inhibitor, single point]
CN(C)c1cc(N/N=C/c2ccccc2C(F)(F)F)nc(N(C)C)n1 | inconclusive: 1.12 µM [inhibitor, full curve, poor fit]
Cc1cc(C)n2cc(-c3ccc(Cl)cc3)c(C(=O)O)c2n1 | inactive
CCC(C)NC(=O)C1CCC(CNS(=O)(=O)c2ccc3c(c2)CC(C)N3C(C)=O)CC1 (centres undefined) | inconclusive: 1.26 µM [activator, partial curve, poor fit]
COc1ccc(-c2cc(CCCC(=O)N3CCN(c4ccc(OC)cc4)CC3)no2)cc1 | inactive
Cc1cc(=O)c2cc(C(=O)Nc3ccc(C)c(C)c3)ccc2[nH]1 | inconclusive: 14.1 µM [activator, single point]
Cc1nn(-c2ccccc2)c2c1cc1c(=O)[nH]c(=O)nc-1n2-c1cccc(Cl)c1 | inactive

An excerpt from the list above, for reference:
SMILES | Potency
C/C(=N\O)c1ccc2[nH]ccc2c1 | inconclusive: 35.5 µM [activator, single point]
Cc1nn(Cc2ccccc2)c(=O)c2nn(-c3ccc(Cl)cc3)c(C)c12 | inconclusive: 35.5 µM [inhibitor, single point]
COc1cc(C(=O)Nc2ccc3c(c2)OCCO3)ccc1OC(F)F | inconclusive: 29.1 µM [inhibitor, single point]
O=C(Nc1ccc(F)cc1)NC1(C(=O)NCc2cccs2)CCCCC1 | inconclusive: 32.6 µM [inhibitor, partial curve, poor fit]
CCN(CC)S(=O)(=O)c1ccc(NC(=O)CSc2nc3nc(C)cc(C)c3c(=O)[nH]2)cc1 | inconclusive: 14.1 µM [inhibitor, partial curve, poor fit]
Cn1cccc1-c1cc(C(=O)N2CCc3c([nH]c4ccccc34)C2c2ccccn2)[nH]n1 (centres undefined) | inconclusive: 14.6 µM [inhibitor, partial curve]
Cc1ccc2nc(N3CCN(S(=O)(=O)c4ccc(C)c(Cl)c4)CC3)c(C#N)cc2c1 | active: 4.61 µM
Nn1c(SCC(=O)N2CCc3ccccc3C2)nnc1-c1cccs1 | inactive
Cc1cc(NC(=O)Nc2nnc(N(C)C3CCCCC3)s2)ccc1Br | inconclusive: 15.8 µM [inhibitor, partial curve, poor fit]
N#CCCn1cc(C(=O)Nc2ccccc2Cl)c(-c2ccc(F)cc2)n1 | inconclusive: 3.55 µM [inhibitor, single point]
CN(C)c1cc(N/N=C/c2ccccc2C(F)(F)F)nc(N(C)C)n1 | inconclusive: 1.12 µM [inhibitor, full curve, poor fit]
Cc1cc(C)n2cc(-c3ccc(Cl)cc3)c(C(=O)O)c2n1 | inactive
CCC(C)NC(=O)C1CCC(CNS(=O)(=O)c2ccc3c(c2)CC(C)N3C(C)=O)CC1 (centres undefined) | inconclusive: 1.26 µM [activator, partial curve, poor fit]

The results go on.

SMILES | Potency
COc1ccccc1/C=C/c1nc(C#N)c(N2CCN(C)CC2)o1 | inactive
O=C(Nc1ccc(Cl)cc1)c1csc(-c2ccccc2)n1 | inactive
COc1cc(/C=N/Nc2nncn2/N=C/c2ccc(O)c(OC)c2)ccc1O | inconclusive: 10 µM [inhibitor, partial curve, poor fit]
Cc1ccc(CNC(=O)C2CCN(S(=O)(=O)c3cccc4nonc34)CC2)cc1 | inconclusive: 8.91 µM [inhibitor, partial curve, poor fit]
Cc1cc(C)c(NC(=O)C2CC(=O)N(c3ccc4c(c3)OCCO4)C2)c(C)c1 (centres undefined) | inconclusive: 5.8 µM [activator, single point]
O=C(Nc1ccccc1C(F)(F)F)c1cc(-c2ccc3c(c2)OCCO3)on1 | inconclusive: 1.26 µM [activator, partial curve, poor fit]
Cc1ccn2c(c1)nc(=S)n2C(=O)c1ccco1 | inconclusive: 0.0046 µM [activator, full curve, poor fit]
CCOC(=O)c1c(N)n(CCOC(=O)c2cccs2)c2nc3ccccc3nc12 | inconclusive: 11.6 µM [inhibitor, partial curve, poor fit]
CN1C(CC(=O)Nc2ccc(Br)cc2)c2ccccc2CC1(C)C (centres undefined) | active: 11.2 µM
Cc1ccc(NC(=O)Cn2c(=S)[nH]c3ccccc32)cc1 | inactive
O=C(OCC#CCSc1nc2ccccc2o1)c1cc2ccccc2o1 | inactive
N#C/C(=C\c1ccc(Sc2ccc(Cl)cc2)o1)c1nc2ccccc2[nH]1 | inconclusive: 35.5 µM [inhibitor, single point]
CC[C@H]1C(=O)OC[C@@H]1Cc1cncn1C | inactive
Cc1ccc(S(=O)(=O)NCCC(c2ccccc2)c2ccco2)cc1 (centres undefined) | inconclusive: 25.9 µM [inhibitor, single point]
CCN(CC)S(=O)(=O)c1cc(NC(=O)CN2C(=O)NC(C)(c3ccccc3)C2=O)ccc1C (centres undefined) | inactive
Cc1ccc(-n2nc3ccc(N)cc3n2)cc1 | inconclusive: 0.282 µM [activator, full curve, poor fit]
CC(c1ccco1)N(C(=O)c1ccc(Cl)c([N+](=O)[O-])c1)c1ccccn1 (centres undefined) | inconclusive: 8.91 µM [inhibitor, partial curve, poor fit]
CCOC(=O)N1CCC(NC(=O)c2cc(C(=O)NC3CCCC3)ccc2CO)CC1 | inactive
CCNC(=O)Oc1ccc(-c2csnn2)cc1 | inactive
Cc1cccc(OCc2nc(CC(=O)Nc3ccc(C)cc3C)cs2)c1 | inactive
COc1cccc2cc(/C(=N/O)c3ccc(Br)cc3)oc12 | inactive
CCN(CC)c1ccc(CNCCc2ccc(F)cc2)cc1 | inconclusive: 8.91 µM [inhibitor, partial curve, poor fit]
CCOC(=O)C1=C(c2ccccc2)N(C)C(=O)NC1c1ccc(OC(F)F)c(OC)c1 (centres undefined) | inconclusive: 2.24 µM [inhibitor, partial curve, poor fit]

From PubChem BioAssay AID540276 (National Center for Advancing Translational Sciences (NCATS), 2011)
